{"source": "PubChem BioAssay AID504744 (Drosophila RNAi Screening Center, 2011)", "aim": "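Uncover factors, including feedback loops, that control dAkt activation in fly cells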 (primary screen)", "cells": "Drosophila Kc167 cells", "reagent": "long dsRNA against Drosophila genes, 250 ng dsRNA per well of a 384-well plate", "time to read-out": "3 days of knock-down, then overnight serum-free starvation before stimulation", "treatment": "bovine insulin at 387 nM for 10 minutes after 12 h without serum", "read-out": "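In-cell antibody fluorescence for phospho-dAkt in each well over DNA-dye signal, with log2 residuals expressed as z-scores adjusted for cell count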", "active means": "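Hit in the insulin screen when the two-replicate mean z-score is more extreme than plus or minus 2.5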", "note": "In all, the deposit lists about 23,000 reagents; this is a random part of those with a known target gene and a result. In the full data, 98 (0.43%) were called active. 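Only hit calls are given; the phospho-dAkt signals, z-scores and hit direction were not deposited.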 Names joined by + are all predicted targets of the reagent. No sequences are given here."}
{"Gene": "cue", "dsRNA": "DRSC08248", "Call": "inactive"}
{"Gene": "Rab4", "dsRNA": "DRSC07524", "Call": "inactive"}
{"Gene": "CG31781 (retired record)", "dsRNA": "DRSC02431", "Call": "inactive"}
{"Gene": "CG31781 (retired record)", "dsRNA": "DRSC02432", "Call": "inactive"}
{"Gene": "Cyp6a16Psi (retired record)", "dsRNA": "DRSC03307", "Call": "inactive"}
{"Gene": "Ubc10", "dsRNA": "DRSC07568", "Call": "inactive"}
{"Gene": "Orc1", "dsRNA": "DRSC07496", "Call": "inactive"}
{"Gene": "CG9747", "dsRNA": "DRSC16554", "Call": "inactive"}
{"Gene": "Septin2", "dsRNA": "DRSC16855", "Call": "inactive"}
{"Gene": "CAH16", "dsRNA": "DRSC15371", "Call": "inactive"}
{"Gene": "CG6793", "dsRNA": "DRSC10714", "Call": "inactive"}
{"Gene": "rdo", "dsRNA": "DRSC02452", "Call": "inactive"}
{"Gene": "CG14625", "dsRNA": "DRSC18633", "Call": "inactive"}
{"Gene": "Irp-1B", "dsRNA": "DRSC16720", "Call": "inactive"}
{"Gene": "htt", "dsRNA": "DRSC16970", "Call": "inactive"}
{"Gene": "CG11158", "dsRNA": "DRSC19389", "Call": "inactive"}
{"Gene": "CG8854", "dsRNA": "DRSC07288", "Call": "inactive"}
{"Gene": "Lapsyn", "dsRNA": "DRSC04249", "Call": "inactive"}
{"Gene": "CG14280", "dsRNA": "DRSC14761", "Call": "inactive"}
{"Gene": "dy", "dsRNA": "DRSC20325", "Call": "inactive"}
{"Gene": "Cpr50Cb", "dsRNA": "DRSC06975", "Call": "inactive"}
{"Gene": "Hsepi", "dsRNA": "DRSC04986", "Call": "inactive"}
{"Gene": "vnd", "dsRNA": "DRSC17360", "Call": "inactive"}
{"Gene": "vnd", "dsRNA": "DRSC18849", "Call": "inactive"}
{"Gene": "vnd", "dsRNA": "DRSC22487", "Call": "inactive"}
{"Gene": "GluRIIA", "dsRNA": "DRSC03334", "Call": "inactive"}
{"Gene": "dbe", "dsRNA": "DRSC00811", "Call": "inactive"}
{"Gene": "SREBP", "dsRNA": "DRSC11182", "Call": "inactive"}
{"Gene": "Ggamma30A", "dsRNA": "DRSC02715", "Call": "inactive"}
{"Gene": "Ggamma30A", "dsRNA": "DRSC03331", "Call": "inactive"}
{"Gene": "obst-I", "dsRNA": "DRSC08339", "Call": "inactive"}
{"Gene": "CG12506", "dsRNA": "DRSC00347", "Call": "inactive"}
{"Gene": "Stacl + CG8179 (retired record)", "dsRNA": "DRSC07091", "Call": "inactive"}
{"Gene": "Yif1", "dsRNA": "DRSC15817", "Call": "inactive"}
{"Gene": "CG12914", "dsRNA": "DRSC06229", "Call": "inactive"}
{"Gene": "CG31431", "dsRNA": "DRSC14589", "Call": "inactive"}
{"Gene": "CG11019 (retired record)", "dsRNA": "DRSC02117", "Call": "inactive"}
{"Gene": "CG9897 + asRNA:CR42742", "dsRNA": "DRSC04595", "Call": "inactive"}
{"Gene": "iPLA2-VIA", "dsRNA": "DRSC10699", "Call": "inactive"}
{"Gene": "Cyp18a1", "dsRNA": "DRSC20235", "Call": "inactive"}
{"Gene": "Or43a", "dsRNA": "DRSC07485", "Call": "inactive"}
{"Gene": "CG12123", "dsRNA": "DRSC17818", "Call": "inactive"}
{"Gene": "BicD", "dsRNA": "DRSC02006", "Call": "inactive"}
{"Gene": "Tep2", "dsRNA": "DRSC02679", "Call": "inactive"}
{"Gene": "Tep2", "dsRNA": "DRSC03451", "Call": "inactive"}
{"Gene": "CG32053", "dsRNA": "DRSC10683", "Call": "inactive"}
{"Gene": "Ptp36E", "dsRNA": "DRSC03021", "Call": "inactive"}
{"Gene": "CG5746", "dsRNA": "DRSC15868", "Call": "inactive"}
{"Gene": "CG6978", "dsRNA": "DRSC18409", "Call": "inactive"}
{"Gene": "js", "dsRNA": "DRSC15004", "Call": "inactive"}
{"Gene": "CG2224", "dsRNA": "DRSC15429", "Call": "inactive"}
{"Gene": "Dis3l2", "dsRNA": "DRSC08496", "Call": "inactive"}
{"Gene": "CG10081", "dsRNA": "DRSC05962", "Call": "inactive"}
{"Gene": "CG40191", "dsRNA": "DRSC21041", "Call": "inactive"}
{"Gene": "CG7457", "dsRNA": "DRSC10849", "Call": "inactive"}
{"Gene": "rb", "dsRNA": "DRSC18826", "Call": "inactive"}
{"Gene": "Plekhm1", "dsRNA": "DRSC04527", "Call": "inactive"}
